# Some of the results follow.
# Chains of the proteins cited; added tags and fusions are not shown.
# UniProt Q0JBA9, entry or part of it: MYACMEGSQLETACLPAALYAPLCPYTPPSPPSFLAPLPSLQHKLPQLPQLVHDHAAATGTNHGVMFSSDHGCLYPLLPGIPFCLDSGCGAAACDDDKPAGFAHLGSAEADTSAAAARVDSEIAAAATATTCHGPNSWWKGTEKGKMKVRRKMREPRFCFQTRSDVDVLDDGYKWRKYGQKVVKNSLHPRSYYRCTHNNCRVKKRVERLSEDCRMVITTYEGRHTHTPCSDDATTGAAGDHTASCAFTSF
# Target: OsWRKY34 (Oryza sativa, UniProt Q0JBA9 1-250)
# Assay: protein-binding microarray (RPBM); PBS, 2% BSA, 51.3 ng/ul salmon testes DNA, 50 uM zinc acetate, 200 nM TF, 25 C, 1 h; high values mean tight binding
# Conditions: protein: recombinant; tags: N-terminal polyhistidine and DsRed monomer fusion (pET32a); label: CyDye5-dUTP incorporated in the synthesized complementary strand; 3' TTTTT single-stranded linker to array surface; dsDNA, one strand shown
# Summary of the method: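 A custom Agilent array was converted to double-stranded form by primer extension with Cy5-dUTP and blocked with 2% BSA. Protein at 200 nM in PBS with 2% BSA, salmon testes DNA and 50 µM zinc acetate was applied for 1 h at 25 °C, followed by washing. The proteins were polyhistidine–DsRed N-terminal fusions of transcription factors, expressed in E. coli BL21-CodonPlus and Ni–NTA-purified. The binding signal is per-feature fluorescence intensity (arbitrary units) from an Axon 4000B scanner.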
row,Sequence,binding signal
1,TGTGGAGTTTGAGGATTGCACAATAATCTCAGGGGCGGGCCGGAGTCACCTAGTGCAG,8590 fluorescence intensity (a.u.)
2,ATTTCTTTTTGTTGTGTTATCGTGTTGTTTCGTCACTAGTCGGAGTCACCTAGTGCAG,19600 fluorescence intensity (a.u.)
3,ACCTGTGATGAGTTTCCTTCATCACCCACGTCTCTTTCTACGGAGTCACCTAGTGCAG,10500 fluorescence intensity (a.u.)
4,GAGTTGGTTCCTTCTGTCCTCCATAGATATATTACAGTTTCGGAGTCACCTAGTGCAG,8160 fluorescence intensity (a.u.)
5,ATTATTTTTTATATGCTGATGCCTCTAACACGTCTCTCCACGGAGTCACCTAGTGCAG,8850 fluorescence intensity (a.u.)
6,ATTATATGCTAATTACTTTCTCGTTTTACGTACACCAACTCGGAGTCACCTAGTGCAG,8420 fluorescence intensity (a.u.)
7,GTAATTCTTTCCATTTCCAAAAAGGCACGCTCTGAGTTACCGGAGTCACCTAGTGCAG,8110 fluorescence intensity (a.u.)
8,TCGGGTTTCTTTTGCCCCTTTTCTTTCGCCAGCTTTTGCACGGAGTCACCTAGTGCAG,11200 fluorescence intensity (a.u.)
9,TTTTCTTGGTGGTTCTAGAGGTTGTTTTGCATATTTAATACGGAGTCACCTAGTGCAG,11900 fluorescence intensity (a.u.)
10,TTGGTCATCGTCTTCGCCTCCGACGCCGCCTGCTTCTTCGCGGAGTCACCTAGTGCAG,11000 fluorescence intensity (a.u.)
11,TTTGGTCGATTGCTGCTGCTGTGGTGGTGGTGGACTGGTGCGGAGTCACCTAGTGCAG,10800 fluorescence intensity (a.u.)
12,TTTCACATTATATATGTTTTGGACTCCATATCCATATGAACGGAGTCACCTAGTGCAG,8020 fluorescence intensity (a.u.)
13,ATTGGGTTTAGTACTTTGGTTTGACTATGTTGAAGATAAACGGAGTCACCTAGTGCAG,8770 fluorescence intensity (a.u.)
14,CTGGCGAGCAGAGCAGGGGAGGGGAGGGGAGGGGATCCTGCGGAGTCACCTAGTGCAG,15800 fluorescence intensity (a.u.)
15,GGGTTTGTCCCTAATTGGTCTTTTGCCGACGAGCTCCATGCGGAGTCACCTAGTGCAG,10000 fluorescence intensity (a.u.)
16,GCTCAGAACATCGGATTCCCCATCCCTAAATATTTAACACCGGAGTCACCTAGTGCAG,9080 fluorescence intensity (a.u.)
17,TATGGTTTCTGTCATTCCGTCAGTGTATATATATCCAGCACGGAGTCACCTAGTGCAG,8380 fluorescence intensity (a.u.)
18,GAATTACATTAAACCTCATGTGTTCCCCATGATAGATGGACGGAGTCACCTAGTGCAG,8440 fluorescence intensity (a.u.)
19,TCGTTCGCCACGAGCTCCCGTTTTGACCACCGCATCCTCCCGGAGTCACCTAGTGCAG,9010 fluorescence intensity (a.u.)
20,CCCTCAAGACGATCTGAGCCGTCCGATCCATCTCCCGCACCGGAGTCACCTAGTGCAG,8210 fluorescence intensity (a.u.)
21,CCTGCTCTGTTTCCGAACTCGATCTCCGCCTCCGACTTTGCGGAGTCACCTAGTGCAG,9670 fluorescence intensity (a.u.)

row,Sequence,binding signal
1,CGTTGAGTTGGTTTAGGGGTGGACTGATTTGCCTTTGCCCCGGAGTCACCTAGTGCAG,12900 fluorescence intensity (a.u.)
2,TAACGGATTCCATCTCTTGATTTCTACTACCACCGTTCGCCGGAGTCACCTAGTGCAG,9880 fluorescence intensity (a.u.)
3,AACCCACCTGCACGCACCGTCCTTACCTCTGTTCGATTGACGGAGTCACCTAGTGCAG,16800 fluorescence intensity (a.u.)
4,CGTTTCAAAATGTTTGACACCGTTGACTTTTTAGTACATGCGGAGTCACCTAGTGCAG,35900 fluorescence intensity (a.u.)
5,GACAATGGTGGGGAGTTTGATGCTGGTGTACCGTAAGATCCGGAGTCACCTAGTGCAG,9360 fluorescence intensity (a.u.)
6,CGCCACTGATCATTTTTTTTTACCTACACTTCTGCTGAACCGGAGTCACCTAGTGCAG,12200 fluorescence intensity (a.u.)
7,CTCATCCCCGTGCGCTGCTGCTGCTGTGTCGTCGTCGTCGCGGAGTCACCTAGTGCAG,8350 fluorescence intensity (a.u.)
8,TTGCAGCGGCAATATCACTAGGTGGTGCACTTGTTTTTGCCGGAGTCACCTAGTGCAG,9180 fluorescence intensity (a.u.)
9,ATTCTCTGACCTAAATGTCTATTCCACGTTCAACCATTTTCGGAGTCACCTAGTGCAG,10200 fluorescence intensity (a.u.)
10,ACGCAACTATCGATCTACTTCCGGTTTATGTCTTTGTTGCCGGAGTCACCTAGTGCAG,11200 fluorescence intensity (a.u.)
11,CACTGATTTTTTTTCTTCTCTCCTTGGAATGATTGCAAAGCGGAGTCACCTAGTGCAG,8620 fluorescence intensity (a.u.)
12,TTTCACAGGCTCTTATTTCTCTCTTTCCTTGACTCTCTCTCGGAGTCACCTAGTGCAG,9110 fluorescence intensity (a.u.)
13,CTTCCTCTTCCTCTTTTCTCGGTGTCTGAATCTCTCCTGACGGAGTCACCTAGTGCAG,9350 fluorescence intensity (a.u.)
14,CAAGCCAGCCTCTCATCCTCGCGTCACCTGAACTATATATCGGAGTCACCTAGTGCAG,8150 fluorescence intensity (a.u.)
15,AGTTGTGGCAAGGATGTGAAAGGGAAGGCATACATGTTCGCGGAGTCACCTAGTGCAG,8350 fluorescence intensity (a.u.)
16,GTCGGTCGCCACCGCTTCTCCGCCCGTCTGCTGCTCCTCCCGGAGTCACCTAGTGCAG,8130 fluorescence intensity (a.u.)
17,AATAAGTTCATCTGAGGTCCCTTAATTTGTCACCGAATCCCGGAGTCACCTAGTGCAG,8900 fluorescence intensity (a.u.)
18,TTCCATCTGCTTTTTTTCGTTCTTTTTTCCATCCATCTTTCGGAGTCACCTAGTGCAG,8530 fluorescence intensity (a.u.)
19,TGAATCCACCATTCTGCTCGCCTGCATCATTGGGAGCTCTCGGAGTCACCTAGTGCAG,9780 fluorescence intensity (a.u.)
20,CCACATCACCCACCGCATTCAGCATCATCAGCAGCCGGAACGGAGTCACCTAGTGCAG,9290 fluorescence intensity (a.u.)
21,CGTCGCCTCCGGATTGGTTTCGCGGCGGCCGGCCGTGTCTCGGAGTCACCTAGTGCAG,8040 fluorescence intensity (a.u.)

row,Sequence,binding signal
1,CTCACTCTCTCACTCTGTCTCCTCTCTCATTATCCTCTCGCGGAGTCACCTAGTGCAG,8370 fluorescence intensity (a.u.)
2,CCTCCTCCACTTCTACCACTGCCATAATAATACCATCACCCGGAGTCACCTAGTGCAG,8830 fluorescence intensity (a.u.)
3,GTTTTGACCCCGGTTTTGTCCCACGTGGCGGCTGAGTCAGCGGAGTCACCTAGTGCAG,8360 fluorescence intensity (a.u.)
4,GGTTGGGGTGTGCTCCATGCTTCGCGGATTGCTGGCTCTGCGGAGTCACCTAGTGCAG,9260 fluorescence intensity (a.u.)
5,TTCAAGCTTTGAATTATTTATTTGTTTGTTTGACTTAAAACGGAGTCACCTAGTGCAG,9310 fluorescence intensity (a.u.)
6,TCTTCTCTCCGCTCTATTTTTTTCATCCTATCGATTTTGCCGGAGTCACCTAGTGCAG,8740 fluorescence intensity (a.u.)
7,TCATACATGCATCCATTTCGCTAATTAATTTGTTCCCTTACGGAGTCACCTAGTGCAG,13400 fluorescence intensity (a.u.)
8,ACTTCACCGGTTTCCGGCGTCCGGCGCGGCGCCTGCAGAACGGAGTCACCTAGTGCAG,9530 fluorescence intensity (a.u.)
9,TATCTGCTTGTACCCTTATCATTATCTTGAGCATTTCATACGGAGTCACCTAGTGCAG,12600 fluorescence intensity (a.u.)
10,TAATTGATTTCTCTGAATGGTCTAATGACTGCTTTACTCTCGGAGTCACCTAGTGCAG,9230 fluorescence intensity (a.u.)
11,TCTTATTGCTGGCTCTGTTGCCCGATCATTGGCATGCATACGGAGTCACCTAGTGCAG,9850 fluorescence intensity (a.u.)
12,TCTCTCTCTCTCTCTCGGTTCCGTTTTCTAGTAACTCCATCGGAGTCACCTAGTGCAG,8720 fluorescence intensity (a.u.)
13,TCCTCACCGCACGCCACACACTGACTCCATACGCACAAGGCGGAGTCACCTAGTGCAG,11700 fluorescence intensity (a.u.)
14,ACCCAACCTAGCACTACCCACTGCTTCGCCTTTTATACCCCGGAGTCACCTAGTGCAG,13500 fluorescence intensity (a.u.)
15,GACAGACCTCACCTTGCTTCGCCGCTCCACTGCCCATGCCCGGAGTCACCTAGTGCAG,8030 fluorescence intensity (a.u.)
16,GTCGTCTGGCTCAGGCTAATTCCGCGCCTGAGTTACATCACGGAGTCACCTAGTGCAG,8790 fluorescence intensity (a.u.)
17,ATCCGTCCCGTCTCCTCGCCCGCCGCCCTCGACTCGCGTCCGGAGTCACCTAGTGCAG,8980 fluorescence intensity (a.u.)
18,GCGCTGTTTTGGTAAAACCTACCATGATCGGTTTTCAGTTCGGAGTCACCTAGTGCAG,8830 fluorescence intensity (a.u.)
19,AAGCCCATCTTTTTCTCCTTTTTCTTTTCTTTTCTTTTTTCGGAGTCACCTAGTGCAG,12400 fluorescence intensity (a.u.)
20,CGTGTTGGGAGGGAAGGGGTCTGAACACCTAGCTAGGTTCCGGAGTCACCTAGTGCAG,8180 fluorescence intensity (a.u.)
21,GTGAGAGAGGCGGCCGGCGCAAGATGGGGAAGGGGATAGGCGGAGTCACCTAGTGCAG,9090 fluorescence intensity (a.u.)

row,Sequence,binding signal
1,CCTTTTTTTTTTTTTTGCTTCTGGTCAAACAAAAACGCTACGGAGTCACCTAGTGCAG,9160 fluorescence intensity (a.u.)
2,ACCTCTGTTTTTAATAGATGACGTGTCGTTGACTTTTTATCGGAGTCACCTAGTGCAG,13300 fluorescence intensity (a.u.)
3,GCTTGCACTCTATCTCTAGCTACTTGTTGACTGGATTGGACGGAGTCACCTAGTGCAG,8230 fluorescence intensity (a.u.)
4,AGGAATAATTGCAAACCTTGTCATTGGCATGTTTTTTCTCCGGAGTCACCTAGTGCAG,8110 fluorescence intensity (a.u.)
5,GATTCTTTCCTTGCAGGCTTCCTTTCCTAGCCAATCAGCCCGGAGTCACCTAGTGCAG,9740 fluorescence intensity (a.u.)
6,TTCTACTTTTGGATGGGGTTTTTTTACCTTACCCGACCGACGGAGTCACCTAGTGCAG,8090 fluorescence intensity (a.u.)
7,TTTATTCTCACTGCTACACGCCTCTTTCCTCTCTCTCTCTCGGAGTCACCTAGTGCAG,8800 fluorescence intensity (a.u.)
8,AGGCCTCTCTCTCTCTCTCTCTCTCTCTCTCTCTCTCTCTCGGAGTCACCTAGTGCAG,9400 fluorescence intensity (a.u.)
9,CTAGTACGTTTCTACTCTACCCGCCGCTCCGCGGCCGCGCCGGAGTCACCTAGTGCAG,8370 fluorescence intensity (a.u.)
10,TTTGGTAAGTTGGGGATGTGTTGTATCCGGTTTTATGAACCGGAGTCACCTAGTGCAG,8050 fluorescence intensity (a.u.)
11,ATGCAAATGTGCTTTCGGTTCTGCCTGTTGAAATTCTTCCCGGAGTCACCTAGTGCAG,8820 fluorescence intensity (a.u.)
12,AATTGAAGTCTGTAGCAGTTGTTTCTGTTCCTTTGTTTTCCGGAGTCACCTAGTGCAG,9810 fluorescence intensity (a.u.)
13,AAGTGCTCCTACCTGCTGATCTGATCTGATCACTTTCTTGCGGAGTCACCTAGTGCAG,9350 fluorescence intensity (a.u.)
14,TTCTGTTCTTATGCGTCGTCCTATAAACATGATTTAAATTCGGAGTCACCTAGTGCAG,9230 fluorescence intensity (a.u.)
15,ATTTTGACTACCGATAGTTTGCATTGATATCTCTTATACACGGAGTCACCTAGTGCAG,9550 fluorescence intensity (a.u.)
16,AATAGGGTGTTTCCAAAATATGTGGGTTTTTTTGTTGCAACGGAGTCACCTAGTGCAG,9030 fluorescence intensity (a.u.)
17,GGTTATGGTTTTATTGAATTTCAGTCTCACGCTGCTGCAGCGGAGTCACCTAGTGCAG,9800 fluorescence intensity (a.u.)
18,AAGGATGGTTGGTTGGTTGGTTGGTTGGTGAGTTGTCTCCCGGAGTCACCTAGTGCAG,16000 fluorescence intensity (a.u.)
19,TTCCATCGCTATTCTGTTAGGATCTAACCGTTTGATAGCTCGGAGTCACCTAGTGCAG,8140 fluorescence intensity (a.u.)
20,CCATCGCCATCGCCGCAGTCTCGCAGGTCAGTCTCCTCGCCGGAGTCACCTAGTGCAG,9730 fluorescence intensity (a.u.)
21,CGCCTCGGGAGCTGTTTCCAATGATCATAGCCATTTTTCCCGGAGTCACCTAGTGCAG,9260 fluorescence intensity (a.u.)

# Copied from above for reference:
row,Sequence,binding signal
6,TTCTACTTTTGGATGGGGTTTTTTTACCTTACCCGACCGACGGAGTCACCTAGTGCAG,8090 fluorescence intensity (a.u.)
7,TTTATTCTCACTGCTACACGCCTCTTTCCTCTCTCTCTCTCGGAGTCACCTAGTGCAG,8800 fluorescence intensity (a.u.)
8,AGGCCTCTCTCTCTCTCTCTCTCTCTCTCTCTCTCTCTCTCGGAGTCACCTAGTGCAG,9400 fluorescence intensity (a.u.)
9,CTAGTACGTTTCTACTCTACCCGCCGCTCCGCGGCCGCGCCGGAGTCACCTAGTGCAG,8370 fluorescence intensity (a.u.)
10,TTTGGTAAGTTGGGGATGTGTTGTATCCGGTTTTATGAACCGGAGTCACCTAGTGCAG,8050 fluorescence intensity (a.u.)
11,ATGCAAATGTGCTTTCGGTTCTGCCTGTTGAAATTCTTCCCGGAGTCACCTAGTGCAG,8820 fluorescence intensity (a.u.)
12,AATTGAAGTCTGTAGCAGTTGTTTCTGTTCCTTTGTTTTCCGGAGTCACCTAGTGCAG,9810 fluorescence intensity (a.u.)
13,AAGTGCTCCTACCTGCTGATCTGATCTGATCACTTTCTTGCGGAGTCACCTAGTGCAG,9350 fluorescence intensity (a.u.)
14,TTCTGTTCTTATGCGTCGTCCTATAAACATGATTTAAATTCGGAGTCACCTAGTGCAG,9230 fluorescence intensity (a.u.)
15,ATTTTGACTACCGATAGTTTGCATTGATATCTCTTATACACGGAGTCACCTAGTGCAG,9550 fluorescence intensity (a.u.)
16,AATAGGGTGTTTCCAAAATATGTGGGTTTTTTTGTTGCAACGGAGTCACCTAGTGCAG,9030 fluorescence intensity (a.u.)
